The values below come from publication doi:10.1101/2020.02.18.955021.

Amino acid sequences for entries named in this document (tags omitted). Residues count along the entry.
UniProt P21730: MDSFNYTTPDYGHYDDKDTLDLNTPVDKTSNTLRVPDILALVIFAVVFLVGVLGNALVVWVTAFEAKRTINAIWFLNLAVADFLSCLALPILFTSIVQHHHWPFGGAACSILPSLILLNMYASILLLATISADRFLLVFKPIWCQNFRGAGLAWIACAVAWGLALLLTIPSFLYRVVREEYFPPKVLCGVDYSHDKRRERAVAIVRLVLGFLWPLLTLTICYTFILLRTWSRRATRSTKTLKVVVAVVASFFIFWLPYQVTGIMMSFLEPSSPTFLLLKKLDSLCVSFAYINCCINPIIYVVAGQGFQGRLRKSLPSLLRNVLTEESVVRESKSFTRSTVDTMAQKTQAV
UniProt P01031, residues 678-751: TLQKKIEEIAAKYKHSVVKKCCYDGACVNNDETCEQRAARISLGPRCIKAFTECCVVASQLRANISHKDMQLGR

These are yes or no findings as the source states them, for the method shown. Some results given as binding are weak or reduced against the parent protein; the word gives no strength.

Assay [1] deals with human C5a receptor expressed on U937 cells (U937-hsaC5aR) (human) (UniProt P21730). The assay is described as follows: flow cytometry on cells.
Assay [2] deals with T1, zebrafish C5a receptor expressed on U937 cells (U937-dreC5aR) (zebrafish (Danio rerio)) (UniProt P0C7U5).
T1 sequence: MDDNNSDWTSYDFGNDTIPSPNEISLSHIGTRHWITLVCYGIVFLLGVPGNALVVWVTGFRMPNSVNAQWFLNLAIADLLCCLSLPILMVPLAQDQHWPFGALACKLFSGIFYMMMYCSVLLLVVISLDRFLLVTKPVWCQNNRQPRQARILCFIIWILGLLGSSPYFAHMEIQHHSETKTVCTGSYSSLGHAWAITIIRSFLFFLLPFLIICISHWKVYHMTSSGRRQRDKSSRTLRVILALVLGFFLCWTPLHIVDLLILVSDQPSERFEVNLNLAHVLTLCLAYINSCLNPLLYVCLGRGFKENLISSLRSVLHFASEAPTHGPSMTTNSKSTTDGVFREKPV
The assay is described as follows: flow cytometry on cells. Background: In flow cytometry, cells or beads pass a laser one at a time.

Turning to “FITC-labelled recombinant human C5a (from UniProt P01031 678-751) (ligand)”, the binding entry in assay [1] is listed as “binds”; in assay [2] it was “no binding (tested: 10 μg/mL)”.
